# Measurements reported in PubChem BioAssay AID1259308 (NCATS, 2017).
# Assay: 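Candidate targets for better recombinant protein yield in mammalian cells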 (primary screen)
# System: human HEK293 embryonic kidney cells stably expressing firefly luciferase (HEK-CMV-Luc2-Hygro)
# Reagents: single siRNA against human genes, 0.8 pmol siRNA per well
# Time to read-out: 72 h
# Measurement: 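Luciferase light (ONE-Glo) measured on one replicate plate set and viability (CellTiter-Glo) on the other, scaled to a negative control siRNA, with robust z-scores and luciferase per cell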
# Scale: total luciferase, z-score and total luciferase, % of control: higher = more reporter protein produced; luciferase per cell, z-score: higher = more reporter output per viable cell; viable cells, % of control: higher = more viable cells
# Active means: 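Active when the median/MAD z-score for overall luciferase is greater than 3; a gene was taken forward for validation with new siRNAs if at least two of its three siRNAs passed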
# Meaning of the calls: active = raised luciferase; inactive = no rise
# The whole screen tested about 59,000 reagents; shown is an unselected part. Of all reagents, about 1,510 (2.6%) got an active call. 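Calls use total luciferase alone and ignore viability, so some active siRNAs may act by altering cell number.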 Reagents against one gene are numbered here.
Gene,reagent,"total luciferase, z-score","total luciferase, % of control","luciferase per cell, z-score","viable cells, % of control",Outcome
RASGRP2,1,0.222,86.3,0.695,80.3,inactive
RASGRP2,2,-0.115,79.6,0.277,82.7,inactive
RASGRP2,3,0.912,100,0.796,90.6,inactive
CFAP20DC,1,-0.00644,81.8,0.51,79.9,inactive
CFAP20DC,2,-0.0926,80,-0.0491,90.6,inactive
CFAP20DC,3,1.29,108,1.08,90.4,inactive
DDX54,1,-1.63,49.4,-1.4,79.7,inactive
DDX54,2,1.63,114,1.45,87.1,inactive
DDX54,3,-1.34,55.3,-1.28,86.5,inactive
FCGR1BP,1,0.158,85,-0.672,113,inactive
FCGR1BP,2,0.801,97.8,0.548,94.6,inactive
FCGR1BP,3,1.33,108,0.906,95.4,inactive
RNF138,1,1.57,113,0.847,101,inactive
RNF138,2,2.42,130,2.02,85.4,inactive
RNF138,3,3.25,147,2.29,89.6,active
ZNF366,1,-0.529,71.4,-0.0734,81.3,inactive
ZNF366,2,-0.557,70.8,-0.251,84.5,inactive
ZNF366,3,-0.821,65.6,-1.43,107,inactive
RIMS3,1,-1.92,43.6,-1.48,71.9,inactive
RIMS3,2,0.432,90.5,0.214,95.6,inactive
RIMS3,3,0.451,90.9,0.088,99.2,inactive
TWF1,1,-0.427,73.4,-0.686,98.2,inactive
TWF1,2,-0.989,62.2,-0.586,81.1,inactive
TWF1,3,2.55,133,1.77,93,inactive

Entries above whose gene name begins with Z or z:
Gene,reagent,"total luciferase, z-score","total luciferase, % of control","luciferase per cell, z-score","viable cells, % of control",Outcome
ZNF366,1,-0.529,71.4,-0.0734,81.3,inactive
ZNF366,2,-0.557,70.8,-0.251,84.5,inactive
ZNF366,3,-0.821,65.6,-1.43,107,inactive
